In the supplement of paper PMC12823440, “Inhibitors supercharge kinase turnover through native proteolytic circuits” (Nature, 2025):
This is one part of the list. Hit calls seldom repeat between salt and free forms of one compound.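 In K562 cells expressing nanoluciferase-fused kinases, luminescence was recorded at 4 h intervals between 2 and 18 h, normalized as percent of control with DMSO at 100% and a positive control at 0%. A significant (2 sigma) signal drop marks a time point as decreased. The authors' rule for a hit is not shown and takes in more than the number of time points.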

The chains behind the UniProt entries cited, without tags or fusion partners. Where a name states a change or a piece, a line headed by the entry shows the natural chain unless it says otherwise.
UniProt Q8IWU2: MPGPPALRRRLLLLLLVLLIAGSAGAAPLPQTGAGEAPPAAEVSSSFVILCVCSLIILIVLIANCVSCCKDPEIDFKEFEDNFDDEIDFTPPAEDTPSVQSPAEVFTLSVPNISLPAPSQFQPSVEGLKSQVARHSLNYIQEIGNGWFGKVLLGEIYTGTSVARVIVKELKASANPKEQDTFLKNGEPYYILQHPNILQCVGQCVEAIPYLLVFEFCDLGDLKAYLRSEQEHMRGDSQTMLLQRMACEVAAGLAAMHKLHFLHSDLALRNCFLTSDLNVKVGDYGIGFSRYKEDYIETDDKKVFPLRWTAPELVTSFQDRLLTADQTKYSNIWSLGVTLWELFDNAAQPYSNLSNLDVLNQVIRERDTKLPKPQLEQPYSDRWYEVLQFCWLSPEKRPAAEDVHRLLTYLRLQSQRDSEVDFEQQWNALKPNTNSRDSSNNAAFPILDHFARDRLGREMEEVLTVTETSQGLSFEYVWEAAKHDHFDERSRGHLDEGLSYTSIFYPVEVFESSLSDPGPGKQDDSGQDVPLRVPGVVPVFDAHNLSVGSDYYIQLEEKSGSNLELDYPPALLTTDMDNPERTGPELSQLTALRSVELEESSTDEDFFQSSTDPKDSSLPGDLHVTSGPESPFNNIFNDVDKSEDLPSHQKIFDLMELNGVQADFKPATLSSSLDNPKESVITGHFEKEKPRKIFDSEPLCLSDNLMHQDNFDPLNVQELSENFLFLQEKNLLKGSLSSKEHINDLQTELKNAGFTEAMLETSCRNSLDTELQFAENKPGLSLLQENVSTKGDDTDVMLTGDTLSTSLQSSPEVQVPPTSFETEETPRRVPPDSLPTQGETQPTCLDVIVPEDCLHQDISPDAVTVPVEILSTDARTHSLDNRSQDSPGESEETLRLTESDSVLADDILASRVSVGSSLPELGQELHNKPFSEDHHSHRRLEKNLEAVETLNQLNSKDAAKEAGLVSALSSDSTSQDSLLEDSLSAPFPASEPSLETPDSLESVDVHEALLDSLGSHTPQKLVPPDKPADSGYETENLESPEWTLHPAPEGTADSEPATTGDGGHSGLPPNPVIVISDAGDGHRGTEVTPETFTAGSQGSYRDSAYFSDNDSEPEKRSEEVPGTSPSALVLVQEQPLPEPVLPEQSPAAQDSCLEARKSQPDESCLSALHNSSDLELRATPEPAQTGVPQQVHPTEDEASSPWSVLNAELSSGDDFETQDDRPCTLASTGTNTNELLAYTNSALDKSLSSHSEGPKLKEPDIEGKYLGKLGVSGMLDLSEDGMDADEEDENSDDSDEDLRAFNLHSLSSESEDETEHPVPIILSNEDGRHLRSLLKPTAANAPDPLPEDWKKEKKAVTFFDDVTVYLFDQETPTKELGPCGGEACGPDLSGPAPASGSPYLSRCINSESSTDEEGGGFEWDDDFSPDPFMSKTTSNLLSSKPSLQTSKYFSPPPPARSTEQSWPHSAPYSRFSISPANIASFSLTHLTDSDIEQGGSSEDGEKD
UniProt P07948: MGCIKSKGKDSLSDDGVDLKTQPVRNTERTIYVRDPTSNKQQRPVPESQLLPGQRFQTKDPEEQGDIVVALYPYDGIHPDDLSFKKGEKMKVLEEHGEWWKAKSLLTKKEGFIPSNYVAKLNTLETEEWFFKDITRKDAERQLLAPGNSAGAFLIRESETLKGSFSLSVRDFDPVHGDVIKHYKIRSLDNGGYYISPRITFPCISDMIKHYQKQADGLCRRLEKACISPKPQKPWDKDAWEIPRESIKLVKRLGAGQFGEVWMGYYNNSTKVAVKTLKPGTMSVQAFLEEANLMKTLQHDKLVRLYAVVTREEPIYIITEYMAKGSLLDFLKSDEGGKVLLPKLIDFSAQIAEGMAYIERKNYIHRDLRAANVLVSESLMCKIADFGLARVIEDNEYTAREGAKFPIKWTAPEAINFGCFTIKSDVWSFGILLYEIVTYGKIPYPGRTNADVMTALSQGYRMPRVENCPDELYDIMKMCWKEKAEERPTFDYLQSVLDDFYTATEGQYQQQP

biological target: LMTK2 (UniProt Q8IWU2); assay: kinase-Nluc reporter destabilization hit call (1 = scored as downregulated) (binary); higher = compound decreases kinase abundance; settings: K562; 2-18 h

kinase-Nluc reporter destabilization hit call, inactive:
CC(C)=CC(=O)O[C@H]1Cc2cc3ccc(=O)oc3cc2OC1(C)C [Decursin] (10 µM) 0
O=C(N[C@@H](C1CC1)C(F)(F)F)c1cc(-c2cnn3cc(-c4ccc(F)cc4)cnc23)cs1 (10 µM) 0
CNc1cc(Nc2cccn(-c3ccccn3)c2=O)nn2c(C(=O)N[C@@H]3C[C@@H]3F)cnc12 (2.5 µM) 0
CS(=O)(=O)c1ccc(-c2cnc(N)c(-c3ccc(C(F)(F)F)nc3)c2)cc1 (10 µM) 0
CN(c1ccc(NC(=O)Nc2ccc(OC(F)(F)F)cc2)cc1)c1ccnc(Nc2cccc(S(N)(=O)=O)c2)n1 (2.5 µM) 0
Cc1ccc2c(Nc3cccc(Cl)c3F)nccc2c1NC(=O)c1csc2c(N)ncnc12 [Belvarafenib] (10 µM) 0
COc1nn(C)cc1Nc1nccc(-c2c[nH]c3c(NC(=O)[C@@H](C)N4CCN(C)CC4)cccc23)n1 (10 µM) 0

biological target: LYN (UniProt P07948); assay: as above; settings: K562; 2-18 h

kinase-Nluc reporter destabilization hit call, inactive:
O=C(O)c1cc(N(Cc2ccccc2O)Cc2ccccc2O)ccc1O [Lavendustin B] (10 µM) 0
Cc1cnc(NC2CCOCC2)nc1-n1cnc(C(=O)N[C@H](CN)c2cc(F)cc(Cl)c2)c1 (10 µM) 0
Cn1ncc2cc(-c3cnc(N)c(Cl)c3N3CCC4(CCNC4=O)CC3)ccc21 (10 µM) 0
CC(C)c1cccc(C(C)C)c1N1C(=O)c2ccc(N)cc2C1=O (2.5 µM) 0
CC[C@@](C)(Nc1ccnc(-c2c[nH]c3ncccc23)n1)C(=O)NCC(F)(F)F [Decernotinib] (10 µM) 0
NC1=NCCN1CC(=O)O [Cyclocreatine] (10 µM) 0
Nc1c(C(=O)NCc2ccc(C(=O)NCCCC3CCCCC3)cc2)cnn1-c1ccccc1 (2.5 µM) 0
C[C@H](Nc1ncnc2nc[nH]c12)c1cc2cccc(Cl)c2c(=O)n1-c1ccccc1 [Duvelisib] (10 µM) 0
Cc1cc(Nc2nc(CC3(C(=O)O)CCN(C(=O)c4cccc(Cl)c4Cl)CC3)ccc2F)n[nH]1 (10 µM) 0
C[C@@H]1O[C@@H](O[C@@H]2[C@@H](O)[C@H](OCCc3ccc(O)c(O)c3)O[C@H](CO)[C@H]2OC(=O)/C=C/c2ccc(O)c(O)c2)[C@H](O)[C@H](O)[C@H]1O [Verbascoside] (10 µM) 0
O=C1/C(=C\c2ccc(Cl)cc2)C=C(c2ccccc2)N1c1ccc(O)cc1 (2.5 µM) 0
Nc1nccc(Oc2ccc(NC(=O)c3c[nH]cc(-c4ccc(F)cc4)c3=O)cc2F)c1Cl (10 µM) 0
COc1ccc(-c2c(C)nn3c(NCCN4CCOCC4)cc(C)nc23)cc1OC (10 µM) 0
O=C1NC(=O)C(c2cnc3ccccn23)=C1c1cn2c3c(cc(F)cc13)CNCC2 [GSK-3 inhibitor 1] (2.5 µM) 0
CCCCCCCC/C=C\CCCCCCCCCCCC(=O)O [Erucic acid] (10 µM) 0
O=C(Nc1nc2ccccc2[nH]1)c1cccc([N+](=O)[O-])c1 [IRAK-4 protein kinase inhibitor 2] (10 µM) 0
Cc1cccc(-c2[nH]c(C(C)(C)C)nc2-c2ccc3nccnc3c2)n1 (10 µM) 0
C[C@@H]1CC(=O)c2c(ccc3c2C(=O)c2cccc(O)c2C3=O)C1 [Ochromycinone] (10 µM) 0
CN1C(=O)[C@@H](NC(=O)c2n[nH]c(Cc3ccccc3)n2)COc2ccccc21 (10 µM) 0
CCc1cccc(CC)c1NC(=O)N1Cc2[nH]nc(NC(=O)c3ccc(N4CCN(C)CC4)cc3)c2C1 (2.5 µM) 0
COc1ccc(N=Nc2c(N)n[nH]c2N)cc1 (10 µM) 0
Cc1ccc(NC(=O)c2ccnc(C(F)(F)F)c2)cc1-c1cc(OCCO)nc(N2CCOCC2)c1 (10 µM) 0
CC(C)(O)[C@H]1CC[C@H](Nc2ccc3ncc(-c4cccc(C(F)(F)F)c4)n3n2)CC1 (10 µM) 0
CCn1c(=O)c(-c2cc[nH]n2)cc2c(C)nc(N)nc21 [Voxtalisib] (10 µM) 0
C[C@H](NC(=O)[C@H]1NCC[C@@H]1O)c1ccc(-c2noc(CCC3CCCC3)n2)cc1 (10 µM) 0

Two successive compounds from above, quoted:
kinase-Nluc reporter destabilization hit call, inactive:
C[C@@H]1CC(=O)c2c(ccc3c2C(=O)c2cccc(O)c2C3=O)C1 [Ochromycinone] (10 µM) 0
CN1C(=O)[C@@H](NC(=O)c2n[nH]c(Cc3ccccc3)n2)COc2ccccc21 (10 µM) 0
